Results reported in US20260034234A1 (AGENSYS, published 2026).
These are yes or no findings as the source states them, for the method shown. Some binding calls cover weakened binding; strength is not graded here.

The chains behind the UniProt entries cited, without tags or fusion partners. Where a name states a change or a piece, a line headed by the entry shows the natural chain unless it says otherwise. A line that says so, or that is headed by a name, gives the form on record, which may keep a tag or linker.
Murine ortholog of 191P4D12, N90S mutant (on PC3 cells) (Q8R007, form named): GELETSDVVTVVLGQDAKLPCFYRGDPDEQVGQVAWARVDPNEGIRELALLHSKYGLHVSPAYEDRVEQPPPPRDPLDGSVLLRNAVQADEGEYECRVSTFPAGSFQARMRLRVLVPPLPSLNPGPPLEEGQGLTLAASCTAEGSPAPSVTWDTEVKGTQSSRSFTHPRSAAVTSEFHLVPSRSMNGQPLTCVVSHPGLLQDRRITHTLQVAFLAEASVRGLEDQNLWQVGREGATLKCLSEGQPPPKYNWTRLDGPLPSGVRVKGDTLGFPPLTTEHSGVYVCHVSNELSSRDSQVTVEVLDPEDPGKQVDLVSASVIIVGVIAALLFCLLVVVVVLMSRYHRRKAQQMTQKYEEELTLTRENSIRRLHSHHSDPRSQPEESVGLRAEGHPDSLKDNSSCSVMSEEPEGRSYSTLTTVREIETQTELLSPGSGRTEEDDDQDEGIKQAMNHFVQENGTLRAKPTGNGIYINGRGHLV

Legend:
[1] = biological target: Cynomolgus 191P4D12 (on PC3 cells) (cynomolgus monkey); assay: FACS on PC3 cells
[2] = biological target: Cynomolgus 191P4D12 (on PC3 cells) (cynomolgus monkey); assay: FACS titration on PC3 cells expressing the cynomolgus ortholog
[3] = biological target: Murine ortholog of 191P4D12, N90S mutant (on PC3 cells) (mouse) (UniProt Q8R007); assay: FACS on PC3 cells expressing the mutant
[4] = biological target: Cynomolgus 191P4D12 (on PC3 cells) (cynomolgus monkey); assay: FACS on PC3 cells expressing the ortholog
[5] = biological target: Murine ortholog of 191P4D12, N90S mutant (on PC3 cells) (mouse) (UniProt Q8R007); assay: FACS titration of Ha22-2(2,4)6.1 on PC3 cells expressing mouse 191P4D12 N90S

binding [1]: binds
binding [2]: binds
binding [3]: binds
binding [4]: binds
binding [5]: binds
B1: Ha22-2(2,4)6.1 MAb (antibody, human IgG1, kappa, V domains shown)
VH: EVQLVESGGGLVQPGGSLRLSCAASGFTFSSYNMNWVRQAPGKGLEWVSYISSSSSTIYYADSVKGRFTISRDNAKNSLSLQMNSLRDEDTAVYYCARAYYYGMDVWGQGTTVTVSS
VL: DIQMTQSPSSVSASVGDRVTITCRASQGISGWLAWYQQKPGKAPKFLIYAASTLQSGVPSRFSGSGSGTDFTLTISSLQPEDFATYYCQQANSFPPTFGGGTKVEIKR
notes: Fully human IgG1 kappa from XenoMouse; Used biotinylated in the Western blot; also called 191P4D12 MAb Ha22-2(2,4)6.1; Ha22-(2,4)6.1 MAb
